# Measurements reported in PubChem BioAssay AID1259254 (NCATS, 2017)
# Aim: 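Gene knock-downs that lead to re-replication, shown by excess G2 DNA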 (primary screen)
# Cells: human HCT116 colorectal cancer cells
# Reagent: single siRNA against human genes
# Time to read-out: 3 days
# Measured: 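Imaged Hoechst DNA stain sorts each cell into a cycle phase by DNA amount; per plate, G2 fraction set to 0% for non-targeting and 100% for GMNN siRNA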
# Direction: G2 robust z-score and G2 cells, % of GMNN control: higher = more G2 cells, more excess DNA replication; raw share of cells in G2: higher = larger share of cells with G2 DNA content
# Hit rule: 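Active siRNAs have a G2 robust z of 5 or more median absolute deviations over the median, which in these data means about 38% or higher of GMNN control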
# Here is a random part of about 59,000 deposited reagents. Of all reagents, about 1,550 (2.6%) got an active call. 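G2 share is only a proxy for re-replication; each gene was hit by three separate siRNAs, and active genes were retested.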 Raw values vary from plate to plate and are shown uncorrected. A number with no mark means an inactive call. The numbers tell different reagents against one gene apart. Reagent sequences are not shown. Not stated in the record: the amount of reagent.
target gene,reagent no.,G2 robust z-score,"G2 cells, % of GMNN control",raw share of cells in G2 (%)
OR5M11 (olfactory receptor family 5 subfamily M member 11),1,-0.285,0.96,3.5
OR5M11 (olfactory receptor family 5 subfamily M member 11),2,-0.954,-3.75,2.22
OR5M11 (olfactory receptor family 5 subfamily M member 11),3,-0.738,-2.22,2.37
DNAJB8 (DnaJ heat shock protein family (Hsp40) member B8),1,-0.0847,2.37,3.91
DNAJB8 (DnaJ heat shock protein family (Hsp40) member B8),2,0.509,6.55,5.44
DNAJB8 (DnaJ heat shock protein family (Hsp40) member B8),3,2.93,23.6,11.8
LMBRD1 (LMBR1 domain containing 1),1,-0.238,1.29,5.02
LMBRD1 (LMBR1 domain containing 1),2,0.242,4.67,6.07
LMBRD1 (LMBR1 domain containing 1),3,2.87,23.1,10.5
KCNK17 (potassium two pore domain channel subfamily K member 17),1,-0.18,1.7,5.91
KCNK17 (potassium two pore domain channel subfamily K member 17),2,2.78,22.6,12.4
KCNK17 (potassium two pore domain channel subfamily K member 17),3,-1.44,-7.16,1.58
OR52I2 (olfactory receptor family 52 subfamily I member 2),1,2.03,17.2,9.6
OR52I2 (olfactory receptor family 52 subfamily I member 2),2,-0.0596,2.55,3.7
OR52I2 (olfactory receptor family 52 subfamily I member 2),3,-0.723,-2.12,2.33
UBE2Q2 (ubiquitin conjugating enzyme E2 Q2),1,0.252,4.74,6.27
UBE2Q2 (ubiquitin conjugating enzyme E2 Q2),2,0.205,4.41,6.86
UBE2Q2 (ubiquitin conjugating enzyme E2 Q2),3,-0.0334,2.73,6.94
CDCA3 (cell division cycle associated 3),1,0.988,9.92,7.41
CDCA3 (cell division cycle associated 3),2,-0.757,-2.36,2.76
CDCA3 (cell division cycle associated 3),3,-0.524,-0.722,2.19
LDLRAD3 (low density lipoprotein receptor class A domain containing 3),1,-0.228,1.36,5.27
LDLRAD3 (low density lipoprotein receptor class A domain containing 3),2,-0.624,-1.42,4.18
LDLRAD3 (low density lipoprotein receptor class A domain containing 3),3,-0.947,-3.7,4.19
"TMEM183BP (transmembrane protein 183B, pseudogene)",1,0.658,7.6,6.63
"TMEM183BP (transmembrane protein 183B, pseudogene)",2,0.203,4.39,4.8
"TMEM183BP (transmembrane protein 183B, pseudogene)",3,0.125,3.85,3.92
LRRC37BP1 (leucine rich repeat containing 37B pseudogene 1),1,1.2,11.4,7.46
LRRC37BP1 (leucine rich repeat containing 37B pseudogene 1),2,-1.01,-4.12,1.74
LRRC37BP1 (leucine rich repeat containing 37B pseudogene 1),3,3.3,26.2,13.7
CCDC13 (coiled-coil domain containing 13),1,0.318,5.21,5.57
CCDC13 (coiled-coil domain containing 13),2,-0.365,0.4,3.04
CCDC13 (coiled-coil domain containing 13),3,-0.873,-3.17,1.96
CNOT6 (CCR4-NOT transcription complex subunit 6),1,1.38,12.7,8.83
CNOT6 (CCR4-NOT transcription complex subunit 6),2,-1.02,-4.24,3.89
CNOT6 (CCR4-NOT transcription complex subunit 6),3,0.374,5.6,6.33
KLK15 (kallikrein related peptidase 15),1,0.635,7.43,8.15
KLK15 (kallikrein related peptidase 15),2,0.2,4.37,6.45
KLK15 (kallikrein related peptidase 15),3,-0.618,-1.38,3.39
NRG3 (neuregulin 3),1,-0.588,-1.17,4.53
NRG3 (neuregulin 3),2,0.377,5.62,6.46
NRG3 (neuregulin 3),3,-0.616,-1.37,2.66
PKNOX2 (PBX/knotted 1 homeobox 2),1,-0.496,-0.519,2.61
PKNOX2 (PBX/knotted 1 homeobox 2),2,-0.805,-2.7,4.69
PKNOX2 (PBX/knotted 1 homeobox 2),3,0.158,4.08,4.91
TRAM2 (translocation associated membrane protein 2),1,2.68,21.9,15.2
TRAM2 (translocation associated membrane protein 2),2,1.25,11.8,8.85
TRAM2 (translocation associated membrane protein 2),3,3.11,24.8,12.4
CRYM (crystallin mu),1,-0.306,0.814,5.29
CRYM (crystallin mu),2,0.697,7.87,6.81
CRYM (crystallin mu),3,1.88,16.2,10.7
ABHD12B (abhydrolase domain containing 12B),1,0.206,4.41,5.31
ABHD12B (abhydrolase domain containing 12B),2,1.65,14.5,7.4
ABHD12B (abhydrolase domain containing 12B),3,0.0829,3.55,4.31
POGLUT1 (protein O-glucosyltransferase 1),1,0.101,3.68,5.8
POGLUT1 (protein O-glucosyltransferase 1),2,1.87,16.1,12.2
POGLUT1 (protein O-glucosyltransferase 1),3,-0.543,-0.85,2.76
NDUFA13 (NADH:ubiquinone oxidoreductase subunit A13),1,-0.924,-3.53,4.35
NDUFA13 (NADH:ubiquinone oxidoreductase subunit A13),2,-0.387,0.246,4.33
NDUFA13 (NADH:ubiquinone oxidoreductase subunit A13),3,-0.156,1.87,4.52
SATB2 (SATB homeobox 2),1,1.01,10.1,7.32
SATB2 (SATB homeobox 2),2,0.982,9.88,10.3
SATB2 (SATB homeobox 2),3,0.862,9.03,7.18
NOAZFP (nucleolar atypical zinc finger),1,1.67,14.7,9.47
NOAZFP (nucleolar atypical zinc finger),2,2.55,20.9,12.5
NOAZFP (nucleolar atypical zinc finger),3,-0.0604,2.54,4.05
UNC119B (unc-119 lipid binding chaperone B),1,-0.0105,2.89,3.28
UNC119B (unc-119 lipid binding chaperone B),2,-0.0253,2.79,5.04
UNC119B (unc-119 lipid binding chaperone B),3,-0.232,1.34,3.85

4 consecutive entries already listed, for reference:
target gene,reagent no.,G2 robust z-score,"G2 cells, % of GMNN control",raw share of cells in G2 (%)
LDLRAD3 (low density lipoprotein receptor class A domain containing 3),1,-0.228,1.36,5.27
LDLRAD3 (low density lipoprotein receptor class A domain containing 3),2,-0.624,-1.42,4.18
LDLRAD3 (low density lipoprotein receptor class A domain containing 3),3,-0.947,-3.7,4.19
"TMEM183BP (transmembrane protein 183B, pseudogene)",1,0.658,7.6,6.63
